# Results are given in words; binding and its absence hold for the method and conditions named. Some binding calls cover weakened binding; strength is not graded here. Tags and fused reporters may be left off the sequences shown.
# T1: mouse glucocorticoid-induced TNF receptor ligand (mGITRL), expressed on the cell surface (mouse) (UniProt Q7TS55)
# T1 sequence: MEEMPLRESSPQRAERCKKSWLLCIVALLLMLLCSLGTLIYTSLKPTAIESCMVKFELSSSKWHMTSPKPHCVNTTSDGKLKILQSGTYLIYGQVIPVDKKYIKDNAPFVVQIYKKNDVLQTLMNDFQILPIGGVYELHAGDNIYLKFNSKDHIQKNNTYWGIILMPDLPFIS
# T2: mouse glucocorticoid-induced tumor necrosis factor receptor (mGITR), expressed on the cell surface (mouse) (UniProt O35714)
# T2 sequence (looked up): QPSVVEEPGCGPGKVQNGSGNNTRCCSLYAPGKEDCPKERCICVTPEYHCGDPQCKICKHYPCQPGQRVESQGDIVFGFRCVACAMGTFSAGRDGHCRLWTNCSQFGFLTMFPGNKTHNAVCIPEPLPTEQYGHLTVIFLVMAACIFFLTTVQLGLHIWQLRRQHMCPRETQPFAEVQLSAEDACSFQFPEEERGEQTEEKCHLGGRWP
# B1: recombinant mGITR-Fc (Alexis Biochemicals) (Fc fusion, mouse, UniProt O35714 20-153, looked up, not shown: a dimerising Fc or GST)
# chain: QPSVVEEPGCGPGKVQNGSGNNTRCCSLYAPGKEDCPKERCICVTPEYHCGDPQCKICKHYPCQPGQRVESQGDIVFGFRCVACAMGTFSAGRDGHCRLWTNCSQFGFLTMFPGNKTHNAVCIPEPLPTEQYGH
# B2: recombinant mGITRL (extracellular domain, 6xHis tag, from E. coli) (ligand, not shown: small tags and cut ends)
# chain: SLKPTAIESCMVKFELSSSKWHMTSPKPHCVNTTSDGKLKILQSGTYLIYGQVIPVDKKYIKDNAPFVVQIYKKNDVLQTLMNDFQILPIGGVYELHAGDNIYLKFNSKDHIQKNNTYWGIILMPDLPFIS
# Tests used:
# [1] = biological target: T1, mouse glucocorticoid-induced TNF receptor ligand (mGITRL), expressed on the cell surface (mouse); assay: flow cytometry on mGITRL transfectants against nontransfectants
# [2] = biological target: T2, mouse glucocorticoid-induced tumor necrosis factor receptor (mGITR), expressed on the cell surface (mouse); assay: flow cytometry on mGITR transfectants (Jurkat JE6.1), detected with anti-His tag antibody
Binder,binding [1],binding [2]
B1,binds,–
B2,–,binds

# Reference: US20090181459A1
